Source: PubChem BioAssay AID270 (DTP/NCI, 2004)
The list is a part of this screen's results and no random one: it gathers tests that were run many times, whatever their T/C, doses with no T/C, and many T/C values between a quarter and a half above the control. Further doses and runs are listed elsewhere. T/C gives the treated animals as a percentage of the vehicle group. Schedule codes are those of the source, read here as Q, the interval in days (D) or hours (H), X, the number of doses. Some doses have a count of surviving animals in place of a T/C: the source files T/C as zero there, which appears to mark a toxic dose or a test without result, not a measured value. Some doses without a T/C left all or most animals alive at the check, yet need not have been tolerated: survival well below the control is almost never listed, so the zero probably covers shortened survival too. Survivors were counted at the toxicity check, usually on the fifth day, unless a day is given; later deaths do not show. Some entries hold several experiments; their values stand side by side, smallest first. Where survival is the endpoint, this PubChem deposit counts one and a half times the control or more as active, and values a quarter to a half above the control carry no call in these data; other NCI protocols may use other cut-offs. Some T/C values are followed by the survivors on the day toxicity was checked, most often the fifth; without a count, all were alive then. *1 amine or outer side, *2 acyl side, *3 side chain or, on linkers, in order; H or OH if unused. Where a SMILES comes first, the peptide text is derived from it. Bridges are numbered along the chain shown (N, C = ends). Roman numbers before positions name the chains, in order. [ ]: non-standard residue; d: D form. Actinocin(9to1) = Cc1c2oc3c(C)ccc(C(=O)[*:1])c3nc-2c(C(=O)[*:2])c(N)c1=O; aThr = C[C@H](O)[C@H](N)C(=O)O; NMeV = CN[C@H](C(=O)O)C(C)C; Sar = CNCC(=O)O

Test system: BDF1 mice, s.c. Lewis lung carcinoma, T/C %
Assay: NCI In Vivo Anticancer Drug Screen. Data for tumor model Lewis Lung Carcinoma (subcutaneous) in B6D2F1 (BDF1) mice
Outline: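 The value reflects a ratio in which the treated cohort's survival time or tumour size is compared against mice receiving only vehicle.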

[1] = T/C endpoint: median survival time, dose: 12.5 mg/kg/injection, schedule: Q01DX009 (ip), vehicle: saline, higher T/C = longer survival
[2] = T/C endpoint: median survival time, dose: 50.0 micrograms/kg/injection, schedule: Q01DX009 (ip), vehicle: saline, higher T/C = longer survival
[3] = T/C endpoint: median survival time, dose: 100.0 micrograms/kg/injection, schedule: Q01DX009 (ip), vehicle: saline, higher T/C = longer survival

CCCCCCC(=O)O[C@H]1CC[C@H]2[C@@H]3CCC4=CC(=O)CC[C@]4(C)[C@H]3CC[C@]12C
T/C (T/C endpoint: median survival time, dose: 20.0 mg/kg/injection, schedule: Q01DX009 (ip), vehicle: water, higher T/C = longer survival): 127 % of control
T/C (T/C endpoint: median survival time, dose: 40.0 mg/kg/injection, schedule: Q01DX009 (ip), vehicle: water, higher T/C = longer survival): 127 % of control

Nc1nc(=S)c2[nH]cnc2[nH]1
survivor count (T/C endpoint: median survival time, dose: 2.0 mg/kg/injection, schedule: Q01DX009 (ip), vehicle: Klucel (hydroxypropylcellulose) (HPC), higher T/C = longer survival): 10 of 10
survivor count (T/C endpoint: median survival time, dose: 4.0 mg/kg/injection, schedule: Q01DX009 (ip), vehicle: Klucel (hydroxypropylcellulose) (HPC), higher T/C = longer survival): 10 of 10
survivor count (T/C endpoint: median survival time, dose: 8.0 mg/kg/injection, schedule: Q01DX009 (ip), vehicle: Klucel (hydroxypropylcellulose) (HPC), higher T/C = longer survival): 9 of 10
survivor count (T/C endpoint: median survival time, dose: 16.0 mg/kg/injection, schedule: Q01DX009 (ip), vehicle: Klucel (hydroxypropylcellulose) (HPC), higher T/C = longer survival): 10 of 10

O=[N+]([O-])c1cccc([N+](=O)[O-])c1Cl
T/C (T/C endpoint: mean tumor weight, dose: 83.0 mg/kg/injection, schedule: Q01DX011 (ip), vehicle: other, evaluated on day 12, higher T/C = larger tumour): 129 % of control
survivor count (T/C endpoint: mean tumor weight, dose: 125.0 mg/kg/injection, schedule: Q01DX011 (ip), vehicle: other, higher T/C = larger tumour): 2 of 6

C#C[C@]1(O)CC[C@H]2[C@@H]3CCc4cc(O)ccc4[C@H]3CC[C@@]21C
survivor count (T/C endpoint: median survival time, dose: 5.0 mg/kg/injection, schedule: Q02DX009 (ip), vehicle: Klucel (hydroxypropylcellulose) (HPC), higher T/C = longer survival): 9 of 10
survivor count (T/C endpoint: median survival time, dose: 80.0 mg/kg/injection, schedule: Q02DX009 (ip), vehicle: Klucel (hydroxypropylcellulose) (HPC), higher T/C = longer survival): 10 of 10
survivor count (T/C endpoint: median survival time, dose: 160.0 mg/kg/injection, schedule: Q02DX009 (ip), vehicle: Klucel (hydroxypropylcellulose) (HPC), higher T/C = longer survival): 10 of 10
survivor count (T/C endpoint: median survival time, dose: 320.0 mg/kg/injection, schedule: Q02DX009 (ip), vehicle: Klucel (hydroxypropylcellulose) (HPC), higher T/C = longer survival): 10 of 10
survivor count (T/C endpoint: median survival time, dose: 640.0 mg/kg/injection, schedule: Q02DX009 (ip), vehicle: Klucel (hydroxypropylcellulose) (HPC), higher T/C = longer survival): 10 of 10

COc1ccc([C@@H]2c3cc4c(cc3C[C@H]3COC(=O)[C@@H]32)OCO4)cc1OC
survivor count (T/C endpoint: median survival time, dose: 67.0 mg/kg/injection, schedule: Q01DX009 (ip), vehicle: saline with Tween-80, higher T/C = longer survival): 10 of 10

COC1N(C2CC(O)C(CO)O2)C(=O)NC(=O)C1(F)Br (stereo not drawn)
survivor count (T/C endpoint: mean tumor weight, dose: 20.0 mg/kg/injection, schedule: Q01DX011 (ip), vehicle: saline, higher T/C = larger tumour): 2 of 7
survivor count (T/C endpoint: mean tumor weight, dose: 30.0 mg/kg/injection, schedule: Q01DX011 (ip), vehicle: saline, higher T/C = larger tumour): 0 of 6, 2 of 7, 3 of 6
T/C (T/C endpoint: median survival time, dose: 6.25 mg/kg/injection, schedule: Q01DX009 (ip), vehicle: saline, higher T/C = longer survival): 125 % of control
T/C [1]: 126 % of control
survivor count [1]: 10 of 10
survivor count (T/C endpoint: median survival time, dose: 25.0 mg/kg/injection, schedule: Q01DX009 (ip), vehicle: saline, higher T/C = longer survival): 10 of 10

Cc1c2oc3c(C)ccc(C(=O)N[C@@H]4C(=O)N[C@H](C(C)C)C(=O)N5CCC[C@H]5C(=O)N(C)CC(=O)N(C)[C@@H](C(C)C)C(=O)O[C@H]4C)c3nc-2c(C(=O)N[C@@H]2C(=O)N[C@H](C(C)C)C(=O)N3CCC[C@H]3C(=O)N(C)CC(=O)N(C)[C@@H](C(C)C)C(=O)O[C@H]2C)c(N)c1=O (I: [aThr][dV]P[Sar][NMeV] / II: [aThr][dV]P[Sar][NMeV]; ester I:1-I:C, II:1-II:C; linker I:N-II:N via Actinocin(9to1))
survivor count (T/C endpoint: mean tumor weight, dose: 0.08 mg/kg/injection, schedule: Q01DX011 (ip), vehicle: saline, higher T/C = larger tumour): 2 of 10
T/C (T/C endpoint: median survival time, dose: 25.0 micrograms/kg/injection, schedule: Q01DX009 (ip), vehicle: saline, higher T/C = longer survival): 87, 111, 114, 120 [9 of 10 alive], 132, 145 % of control
T/C [2]: 100, 109, 112 % of control
survivor count [2]: 10 of 10 and 9 of 9
T/C [3]: 109, 120, 132 % of control
survivor count [3]: 9 of 10 and 9 of 9
survivor count (T/C endpoint: median survival time, dose: 100.0 micrograms/kg/injection, schedule: Q01DX009 (ip), vehicle: water, higher T/C = longer survival): 9 of 10
survivor count (T/C endpoint: median survival time, dose: 200.0 micrograms/kg/injection, schedule: Q01DX009 (ip), vehicle: saline, higher T/C = longer survival): 9 of 10
survivor count (T/C endpoint: median survival time, dose: 200.0 micrograms/kg/injection, schedule: Q01DX009 (ip), vehicle: water, higher T/C = longer survival): 10 of 10
survivor count (T/C endpoint: median survival time, dose: 300.0 micrograms/kg/injection, schedule: Q04DX003 (ip), vehicle: water, higher T/C = longer survival): 10 of 10
survivor count (T/C endpoint: median survival time, dose: 400.0 micrograms/kg/injection, schedule: Q01DX009 (ip), vehicle: saline, higher T/C = longer survival): 1 of 10
survivor count (T/C endpoint: median survival time, dose: 600.0 micrograms/kg/injection, schedule: Q04DX003 (ip), vehicle: water, higher T/C = longer survival): 10 of 10
survivor count (T/C endpoint: median survival time, dose: 1200.0 micrograms/kg/injection, schedule: Q04DX003 (ip), vehicle: water, higher T/C = longer survival): 10 of 10
